Some of these results come from one statement about several compounds together. At least one compound was matched to its structure with a doubt left.
System: 1685 cells
Assay: Thapsigargin induced apoptosis (cell death, propidium iodide)
Format: cell-based, human
Settings: Class 1 anti-apoptotic, 2 pro-apoptotic, 3 cytotoxic, 4 little or no effect
Method: In another aspect of the apoptosis assays, the ratio of living to dead cells, or the proportion of dead cells, in a population of cells exposed to an apoptogen is determined as a measure of the ultimate consequence of apoptosis. Living cells can be distinguished from dead cells using any of a number of techniques known to those skilled in the art.
In order to determine the effect of compounds of this invention on the final endpoint of apoptosis (cell death), the following assays were carried out. […] Cells were plated (3×10^4 cells per well) on 96-well plates 48 hours prior to thapsigargin treatment. […]
Twenty-four hours after thapsigargin +/− agent treatment, propidium iodide (Sigma Chemical Co., St. Louis, Mo.) was added to each well at a final concentration of 10 μg/ml per well. […] The resulting fluorescence values correspond to cells in the monolayer of a well that are non-viable.
Next, the media was aspirated, and the monolayer was fixed (killed) by adding 100 μl of 100% ethanol to each well followed by incubation at ambient temperature for 10 minutes. The fluorescense in each well was then read again. The fluorescence values resulting from the second reading correspond to the total number of cells (whether viable or non-viable at the time of the initial fluorescence reading) present in the monolayer of a well.

## CCCCCCCCc1ccc(NC(=N)N)cc1 [Compound (31)]
  class of compound by effect on thapsigargin induced apoptosis: Class 3 (value ≦ about −10)

From patent US20020052409A1, “Compounds and methods for treating mitochondria-associated diseases” (priority 1998, published 2002)
